Measurements as given in US20110177504A1.
No constants are given. Whether binding was seen depends on the method and setting. For some of these results: In cells and extracts the contact can be indirect. Some binding calls cover weakened binding; strength is not graded here. For some of these results: Tags and fused reporters may be left off the sequences shown.

T1: GLG-1 (ESL-1) polypeptide, expressed in transfected COS cells (human) (UniProt Q92896)
T1 sequence (looked up): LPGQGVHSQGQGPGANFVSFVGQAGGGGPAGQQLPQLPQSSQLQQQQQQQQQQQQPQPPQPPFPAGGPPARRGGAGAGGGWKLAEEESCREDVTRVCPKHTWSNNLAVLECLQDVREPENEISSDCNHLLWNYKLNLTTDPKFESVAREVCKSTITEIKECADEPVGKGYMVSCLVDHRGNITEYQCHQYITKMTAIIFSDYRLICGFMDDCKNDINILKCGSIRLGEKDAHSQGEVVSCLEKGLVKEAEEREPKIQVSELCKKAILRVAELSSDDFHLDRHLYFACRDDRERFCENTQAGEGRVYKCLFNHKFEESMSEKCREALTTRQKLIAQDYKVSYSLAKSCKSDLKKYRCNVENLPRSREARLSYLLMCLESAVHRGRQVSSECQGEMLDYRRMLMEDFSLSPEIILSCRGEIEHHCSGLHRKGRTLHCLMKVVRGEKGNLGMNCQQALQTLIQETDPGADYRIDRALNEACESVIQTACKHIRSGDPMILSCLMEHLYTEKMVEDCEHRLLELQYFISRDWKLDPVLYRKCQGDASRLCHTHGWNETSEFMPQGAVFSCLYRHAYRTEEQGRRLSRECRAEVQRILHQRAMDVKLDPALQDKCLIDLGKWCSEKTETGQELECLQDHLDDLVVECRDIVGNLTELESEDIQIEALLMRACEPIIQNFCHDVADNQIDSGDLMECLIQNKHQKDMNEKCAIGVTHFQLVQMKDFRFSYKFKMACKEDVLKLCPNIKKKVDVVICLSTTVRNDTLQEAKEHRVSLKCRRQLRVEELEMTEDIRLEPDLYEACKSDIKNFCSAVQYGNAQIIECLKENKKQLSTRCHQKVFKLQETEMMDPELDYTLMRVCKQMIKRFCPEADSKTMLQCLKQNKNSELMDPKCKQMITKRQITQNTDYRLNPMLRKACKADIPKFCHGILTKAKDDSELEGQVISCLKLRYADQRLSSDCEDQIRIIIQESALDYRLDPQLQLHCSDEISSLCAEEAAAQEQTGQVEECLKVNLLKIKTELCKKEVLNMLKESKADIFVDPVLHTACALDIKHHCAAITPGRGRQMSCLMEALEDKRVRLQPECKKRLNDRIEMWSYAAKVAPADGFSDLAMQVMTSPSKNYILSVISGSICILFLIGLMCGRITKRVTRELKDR

T2: LYPD5 (as used in the co-immunoprecipitation studies) (human) (UniProt Q6UWN5)
T2 sequence: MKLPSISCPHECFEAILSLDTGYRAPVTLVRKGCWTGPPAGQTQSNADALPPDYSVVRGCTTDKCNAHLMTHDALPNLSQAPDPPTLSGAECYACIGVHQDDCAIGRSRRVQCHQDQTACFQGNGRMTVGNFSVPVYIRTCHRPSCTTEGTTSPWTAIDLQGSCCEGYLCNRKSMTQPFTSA


How the values were obtained:
[1] = molecular target: T1, GLG-1 (ESL-1) polypeptide, expressed in transfected COS cells (human); experiment: expression cloning; transfected COS cells stained with LYPD5-Fc
[2] = molecular target: T1, GLG-1 (ESL-1) polypeptide, expressed in transfected COS cells (human); experiment: transfected COS cells stained with LYPD5-Fc
[3] = molecular target: T2, LYPD5 (as used in the co-immunoprecipitation studies) (human); experiment: co-immunoprecipitation (FIG. 34B)
[4] = molecular target: T2, LYPD5 (as used in the co-immunoprecipitation studies) (human); experiment: co-immunoprecipitation (FIG. 33B)
[5] = molecular target: T2, LYPD5 (as used in the co-immunoprecipitation studies) (human); experiment: co-immunoprecipitation (FIG. 35B)

binding [3]	binding [4]	Binder	other results
–	–	LYPD5-Fc protein (Fc fusion, not shown: a dimerising Fc or GST) MKLPSISCPHECFEAILSLDTGYRAPVTLVRKGCWTGPPAGQTQSNADALPPDYSVVRGCTTDKCNAHLMTHDALPNLSQAPDPPTLSGAECYACIGVHQDDCAIGRSRRVQCHQDQTACFQGNGRMTVGNFSVPVYIRTCHRPSCTTEGTTSPWTAIDLQGSCCEGYLCNRKSMTQPFTSA	binding [1]: binds; binding [2]: binds
binds	binds	GLG-1 ECD Fragment 4 (protein, human, UniProt Q92896 796-1145, looked up) RVSLKCRRQLRVEELEMTEDIRLEPDLYEACKSDIKNFCSAVQYGNAQIIECLKENKKQLSTRCHQKVFKLQETEMMDPELDYTLMRVCKQMIKRFCPEADSKTMLQCLKQNKNSELMDPKCKQMITKRQITQNTDYRLNPMLRKACKADIPKFCHGILTKAKDDSELEGQVISCLKLRYADQRLSSDCEDQIRIIIQESALDYRLDPQLQLHCSDEISSLCAEEAAAQEQTGQVEECLKVNLLKIKTELCKKEVLNMLKESKADIFVDPVLHTACALDIKHHCAAITPGRGRQMSCLMEALEDKRVRLQPECKKRLNDRIEMWSYAAKVAPADGFSDLAMQVMTSPSKN	–
binds	binds	GLG-1 ECD Fragment 3 (protein, human, UniProt Q92896 538-795, looked up) MVEDCEHRLLELQYFISRDWKLDPVLYRKCQGDASRLCHTHGWNETSEFMPQGAVFSCLYRHAYRTEEQGRRLSRECRAEVQRILHQRAMDVKLDPALQDKCLIDLGKWCSEKTETGQELECLQDHLDDLVVECRDIVGNLTELESEDIQIEALLMRACEPIIQNFCHDVADNQIDSGDLMECLIQNKHQKDMNEKCAIGVTHFQLVQMKDFRFSYKFKMACKEDVLKLCPNIKKKVDVVICLSTTVRNDTLQEAKEH	–
binds	–	single GLG-1 domain 609 (protein, human, UniProt Q92896 609-669, looked up) RLSRECRAEVQRILHQRAMDVKLDPALQDKCLIDLGKWCSEKTETGQELECLQDHLDDLVV	–
binds	–	single GLG-1 domain 538 (protein, human, UniProt Q92896 538-608, looked up) MVEDCEHRLLELQYFISRDWKLDPVLYRKCQGDASRLCHTHGWNETSEFMPQGAVFSCLYRHAYRTEEQGR	–
binds	binds	GLG-1 ECD Fragment 2 (protein, human, UniProt Q92896 286-537, looked up) QVSELCKKAILRVAELSSDDFHLDRHLYFACRDDRERFCENTQAGEGRVYKCLFNHKFEESMSEKCREALTTRQKLIAQDYKVSYSLAKSCKSDLKKYRCNVENLPRSREARLSYLLMCLESAVHRGRQVSSECQGEMLDYRRMLMEDFSLSPEIILSCRGEIEHHCSGLHRKGRTLHCLMKVVRGEKGNLGMNCQQALQTLIQETDPGADYRIDRALNEACESVIQTACKHIRSGDPMILSCLMEHLYTEK	–
binds	–	single GLG-1 domain 858 (protein, human, UniProt Q92896 858-921, looked up) RCHQKVFKLQETEMMDPELDYTLMRVCKQMIKRFCPEADSKTMLQCLKQNKNSELMDPKCKQMI	–
binds	–	EESCREDVTRVCPKHTWSNNLAVLECLQDVREPEN (peptide, human, UniProt Q92896 115-149, looked up) [single GLG-1 domain 115]	binding [5]: binds
binds	–	single GLG-1 domain 215 (protein, human, UniProt Q92896 215-285, looked up) QCHQYITKMTAIIFSDYRLICGFMDDCKNDINILKCGSIRLGEKDAHSQGEVVSCLEKGLVKEAEEREPKI	–
binds	–	single GLG-1 domain 150 (protein, human, UniProt Q92896 150-214, looked up) EISSDCNHLLWNYKLNLTTDPKFESVAREVCKSTITEIKECADEPVGKGYMVSCLVDHRGNITEY	–
binds	binds	GLG-1 ECD Fragment 1 (protein, human, UniProt Q92896 26-285, looked up) GAEKLPGQGVHSQGQGPGANFVSFVGQAGGGGPAGQQLPQLPQSSQLQQQQQQQQQQQQPQPPQPPFPAGGPPARRGGAGAGGGWKLAEEESCREDVTRVCPKHTWSNNLAVLECLQDVREPENEISSDCNHLLWNYKLNLTTDPKFESVAREVCKSTITEIKECADEPVGKGYMVSCLVDHRGNITEYQCHQYITKMTAIIFSDYRLICGFMDDCKNDINILKCGSIRLGEKDAHSQGEVVSCLEKGLVKEAEEREPKI	–
binds	–	single GLG-1 domain 670 (protein, human, UniProt Q92896 670-728, looked up) ECRDIVGNLTELESEDIQIEALLMRACEPIIQNFCHDVADNQIDSGDLMECLIQNKHQK	–
binds	–	single GLG-1 domain 729 (protein, human, UniProt Q92896 729-795, looked up) DMNEKCAIGVTHFQLVQMKDFRFSYKFKMACKEDVLKLCPNIKKKVDVVICLSTTVRNDTLQEAKEH	–
